Structures can show the parent of a compound that is named as a salt.
Assay: Glutathione depletion assay (Michael addition to glutathione followed by 1H NMR)
Type: physicochemical
Settings: 2 equiv. reduced glutathione, d6-DMSO, 35° C., majority reaction = greater than 50% reduction in alkene proton signal
Excerpt: 1. Glutathione Depletion Assay
In one aspect the present compounds exert their therapeutic effects by acting as a Michael acceptor for reactive thiol groups in vivo. See, for example, Lehmann et al. Dimethyfumarate Induces Immunosuppression via Glutathione Depletion and Subsequent Induction of Heme Oxygenase 1, Journal of Investigative Dermatology (2007) 127, 835-845. Accordingly, the present compounds may be assessed in vitro by reaction with glutathione as follows:
A mixture of dimethylfumarate (5.2 mg, 3.6 mmol) and reduced glutathione (22.4 mg, 7.3 mmol; 2 equiv.) in d6-DMSO (1.2 mL) were combined in a screw-top vial and the mixture was stirred at 35° C. (with the top securely fastened). Aliquots of sample were removed at intermittent timepoints and a ^1H NMR taken [note: after analysis by ^1H NMR, the sample can be returned to the heated vial and reaction continued). ^1H NMR indicates majority reaction with glutathione (by Michael addition to the double bond) after 3 hr, and complete reaction by 27 hr.
The above reaction was repeated using monomethylfumarate (11.4 mg, 8.8 mmol) and reduced glutathione (55.5 mg, 18.0 mmol) in d6-DMSO (3.0 mL) at 35° C. As judged by 1H NMR, majority reaction was observed by 27 hr.
The above reaction was repeated using methyl (E)-3-(5-oxo-4,5-dihydro-1H-tetrazol-1-yl)acrylate (6.2 mg, 3.6 mmol) and reduced glutathione (22.4 mg, 7.2 mmol) in d6-DMSO (1.2 mL) at 35° C. As judged by ^1H NMR, majority reaction was observed by 30 hr.
As judged by ^1H NMR, majority reaction was observed by 30 hr.
In all the above cases, dis-appearance of the alkene proton signals from the starting material are used to determine the extent of Michael reaction with glutathione.
As would be understood by those of skill in the art, the above experiments can be repeated by varying the equivalents of reduced glutathione (0.5 to 2 equivalents); the reactions can also be run in a mixture of d6-DMSO and D2O; and the temperature of the reaction can also be varied from room temperature to 35° C. (35° C. being used to mimic body temperature). […]

| SMILES | time to majority reaction with glutathione (Michael addition to the double bond) |
| --- | --- |
| COC(=O)/C=C/n1nn[nH]c1=O [Compound 1, methyl (E)-3-(5-oxo-4,5-dihydro-1H-tetrazol-1-yl)acrylate] | ≤ 30 h |
| COC(=O)/C=C/n1nnn(C)c1=O [Compound 2, methyl (E)-3-(4-methyl-5-oxo-4,5-dihydro-1H-tetrazol-1-yl)acrylate] | ≤ 30 h |
| COC(=O)/C=C/C(=O)OC [dimethyl fumarate, reference compound] | ≤ 3 h |

Source: patent publication US11129819B2, “Fumarate analogs and uses thereof” (Rigel Pharmaceuticals, Inc., priority 2014, dated 2021)
